# Results: the supplement of paper PMC5407854, “Inhibitor of ppGalNAc-T3-mediated O-glycosylation blocks cancer cell invasiveness and lowers FGF23 levels” (eLife, 2017)
# The list shows a part of the results. Most entries show no effect beyond the scatter of the controls.
# Tested on: ppGalNAc-T3 sensor
# Assay: T3 sensor activation Q score (MG/GFP ratio z-score vs DMSO controls) (SD units); higher = more sensor activation (inhibition of ppGalNAc-T3 glycosylation)
# Details: HEK293 sensor cells; 10 µM; 6 h
# Procedure: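 Cells were treated with compound at 10 uM for 6 h, then MG/GFP ratio was read by flow cytometry (10,000 cells per well, duplicate wells). Q = (R - R_neg)/SD_neg relative to DMSO vehicle controls; the signal rises when the glycosyltransferase is inhibited.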
row,Structure (SMILES),T3 sensor activation Q score
1,Cc1ccccc1N1C(=O)CC(=O)NC1=O,-0.42
2,COc1ccc(CN2CCN(c3ccc(OC)cc3)CC2)cc1,0.165
3,O=[N+]([O-])c1ccc(N2CCN(Cc3ccc(Cl)cc3Cl)CC2)cc1,-0.145
4,Cc1ccc(CN2CCN(c3ccc(Cl)cc3)CC2)cc1,0.34
5,Cc1ccccc1CN1CCN(c2cccc(Cl)c2)CC1,0.085
6,COc1ccccc1N1CCN(Cc2cccc([N+](=O)[O-])c2)CC1,0.45
7,Fc1ccc(CN2CCN(c3ccccc3)CC2)c(F)c1,-0.22
8,Fc1ccc(CN2CCN(c3ccccc3)CC2)cc1Br,0.42
9,O=C1CC(=O)N(c2ccc(Br)cc2)C(=O)N1,0.15
10,Nc1cc(N2CCNCC2)ccc1[N+](=O)[O-],0.67
11,Cc1ccc(C(CN)CC(=O)O)cc1 (stereo not given),1.61
12,COc1ccc(N2CCN(Cc3ccc(OC)c(C)c3)CC2)cc1,-0.19
13,CCOc1ccccc1CN1CCN(C)CC1,-0.41
14,CCN1CCN(Cc2ccccc2C)CC1,0.02
15,COc1ccc(Br)cc1CN1CCN(c2ccc(F)cc2)CC1,0.87
16,COc1cc(C)c(CN2CCN(c3ccccc3)CC2)cc1C,-0.35
17,COc1ccc(CN2CCN(c3ccccc3)CC2)c(OC)c1C,-0.13
18,Cc1ccc(CN2CCN(C)CC2)cc1,1.55
19,CN1CCN(Cc2ccc([N+](=O)[O-])o2)CC1,0.45
20,Clc1ccc(N2CCN(Cc3ccc4c(c3)OCO4)CC2)cc1,-0.69

row,Structure (SMILES),T3 sensor activation Q score
1,NCCc1c[nH]c2ccc(F)cc12,-0.305
2,CCOc1ccccc1N1CCN(Cc2cccc(C)c2)CC1,-0.17
3,COc1ccc(CN2CCN(c3ccc(F)cc3)CC2)cc1OC,-0.01
4,Fc1ccccc1N1CCN(Cc2ccc(Cl)cc2)CC1,0.77
5,CCc1ccc(C(=O)CCN(C)C)cc1,-0.345
6,O=C1NC(=O)C(C(c2ccccc2)c2ccccc2)C(=O)N1,1.25
7,CC(=O)c1ccc(N2CCN(Cc3ccc(Br)cc3)CC2)cc1,-0.15
8,Fc1ccc(CN2CCN(c3cccc(Cl)c3)CC2)cc1,-0.48
9,COc1ccc(CN2CCN(C)CC2)c(OC)c1,-0.34
10,Cc1cccc(N2CCN(Cc3ccccc3[N+](=O)[O-])CC2)c1C,0.115
11,CCN1CCN(Cc2ccc(OC)c(C)c2)CC1,-0.355
12,COc1cccc(CN2CCN(c3ccc(F)cc3)CC2)c1,-0.215
13,COc1cccc(CN2CCN(C)CC2)c1OC,0.235
14,O=[N+]([O-])c1ccc(N2CCN(Cc3ccc(Cl)cc3)CC2)cc1,0.265
15,CCCCOc1ccc(CN2CCN(CC)CC2)cc1,0.59
16,Cc1ccccc1CN1CCN(CCO)CC1,-0.565
17,CCc1ccc(CN2CCN(c3ccccc3OC)CC2)cc1,0.8
18,Fc1ccc(CN2CCN(Cc3ccccc3)CC2)cc1F,0.715
19,c1ccc(N2CCN(Cc3cccs3)CC2)cc1,-0.09
20,Fc1ccc(F)c(CN2CCN(c3ccccc3F)CC2)c1,0.235

# An excerpt of these results, bar-delimited:
row | Structure (SMILES) | T3 sensor activation Q score
2 | CCOc1ccccc1N1CCN(Cc2cccc(C)c2)CC1 | -0.17
3 | COc1ccc(CN2CCN(c3ccc(F)cc3)CC2)cc1OC | -0.01
11 | CCN1CCN(Cc2ccc(OC)c(C)c2)CC1 | -0.355
